These are yes or no findings as the source states them, for the method shown. In cells and extracts the contact can be indirect. Here binding means that the protein was enriched with, or labelled near, the bait; the list need not be complete. No binding means not detected with the bait.
These molecules were tested against FLAG-HA-tagged TIP5 (F/H-TIP5) (mouse (endogenous in 129/OlaHsd mouse ESCs)) (UniProt Q91YE5) (assay: affinity purification with mass spectrometry).

By UniProt entry, the sequences of proteins in these tests, tags left out.
UniProt Q91YE5: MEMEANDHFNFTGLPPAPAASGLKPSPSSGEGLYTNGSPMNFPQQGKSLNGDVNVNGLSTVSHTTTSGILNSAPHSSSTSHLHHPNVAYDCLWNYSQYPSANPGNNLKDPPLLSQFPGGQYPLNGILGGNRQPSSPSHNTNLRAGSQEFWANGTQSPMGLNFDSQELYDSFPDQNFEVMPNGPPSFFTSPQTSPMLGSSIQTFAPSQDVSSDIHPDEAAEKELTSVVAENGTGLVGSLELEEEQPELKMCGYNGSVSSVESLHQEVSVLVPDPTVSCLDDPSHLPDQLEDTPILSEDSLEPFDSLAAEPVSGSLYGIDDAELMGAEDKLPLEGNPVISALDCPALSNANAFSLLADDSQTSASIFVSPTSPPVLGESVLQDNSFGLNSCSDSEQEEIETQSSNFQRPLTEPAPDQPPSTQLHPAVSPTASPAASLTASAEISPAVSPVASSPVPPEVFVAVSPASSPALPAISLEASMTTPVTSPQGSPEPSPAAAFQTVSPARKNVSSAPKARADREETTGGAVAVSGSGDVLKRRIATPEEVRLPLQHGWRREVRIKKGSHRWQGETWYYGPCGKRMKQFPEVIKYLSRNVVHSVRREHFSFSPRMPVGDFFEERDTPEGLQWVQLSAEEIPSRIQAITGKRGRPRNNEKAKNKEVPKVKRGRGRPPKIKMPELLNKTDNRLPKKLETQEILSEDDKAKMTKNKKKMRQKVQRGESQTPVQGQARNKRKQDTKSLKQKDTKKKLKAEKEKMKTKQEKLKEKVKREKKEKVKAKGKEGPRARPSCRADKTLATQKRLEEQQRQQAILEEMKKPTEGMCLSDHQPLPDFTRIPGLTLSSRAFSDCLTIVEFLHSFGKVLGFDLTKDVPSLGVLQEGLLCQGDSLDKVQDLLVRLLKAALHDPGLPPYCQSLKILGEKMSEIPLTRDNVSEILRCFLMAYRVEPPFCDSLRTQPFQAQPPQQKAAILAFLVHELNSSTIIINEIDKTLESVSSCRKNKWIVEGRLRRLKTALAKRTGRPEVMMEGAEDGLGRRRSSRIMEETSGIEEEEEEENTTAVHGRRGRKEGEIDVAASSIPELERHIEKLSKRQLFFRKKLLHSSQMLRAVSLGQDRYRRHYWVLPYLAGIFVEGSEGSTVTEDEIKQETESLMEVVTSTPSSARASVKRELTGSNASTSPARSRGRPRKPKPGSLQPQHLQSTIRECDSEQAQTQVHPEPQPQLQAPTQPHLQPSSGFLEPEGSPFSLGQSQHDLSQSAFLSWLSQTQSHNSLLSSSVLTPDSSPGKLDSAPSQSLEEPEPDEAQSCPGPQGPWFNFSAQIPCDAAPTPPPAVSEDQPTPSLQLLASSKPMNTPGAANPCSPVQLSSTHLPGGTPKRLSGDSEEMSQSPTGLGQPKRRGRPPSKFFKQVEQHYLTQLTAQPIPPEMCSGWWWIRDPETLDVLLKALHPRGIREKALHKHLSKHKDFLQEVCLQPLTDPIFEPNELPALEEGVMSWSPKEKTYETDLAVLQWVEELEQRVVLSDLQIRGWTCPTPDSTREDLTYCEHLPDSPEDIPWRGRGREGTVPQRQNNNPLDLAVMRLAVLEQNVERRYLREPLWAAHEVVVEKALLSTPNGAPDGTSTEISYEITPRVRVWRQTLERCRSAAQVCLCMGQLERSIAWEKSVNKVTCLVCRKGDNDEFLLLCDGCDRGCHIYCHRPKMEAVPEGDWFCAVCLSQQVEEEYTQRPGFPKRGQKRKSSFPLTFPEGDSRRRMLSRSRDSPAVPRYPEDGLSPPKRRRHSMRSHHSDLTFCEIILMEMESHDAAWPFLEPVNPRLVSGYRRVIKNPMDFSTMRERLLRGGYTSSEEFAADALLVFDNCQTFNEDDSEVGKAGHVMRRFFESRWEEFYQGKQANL
UniProt O70133: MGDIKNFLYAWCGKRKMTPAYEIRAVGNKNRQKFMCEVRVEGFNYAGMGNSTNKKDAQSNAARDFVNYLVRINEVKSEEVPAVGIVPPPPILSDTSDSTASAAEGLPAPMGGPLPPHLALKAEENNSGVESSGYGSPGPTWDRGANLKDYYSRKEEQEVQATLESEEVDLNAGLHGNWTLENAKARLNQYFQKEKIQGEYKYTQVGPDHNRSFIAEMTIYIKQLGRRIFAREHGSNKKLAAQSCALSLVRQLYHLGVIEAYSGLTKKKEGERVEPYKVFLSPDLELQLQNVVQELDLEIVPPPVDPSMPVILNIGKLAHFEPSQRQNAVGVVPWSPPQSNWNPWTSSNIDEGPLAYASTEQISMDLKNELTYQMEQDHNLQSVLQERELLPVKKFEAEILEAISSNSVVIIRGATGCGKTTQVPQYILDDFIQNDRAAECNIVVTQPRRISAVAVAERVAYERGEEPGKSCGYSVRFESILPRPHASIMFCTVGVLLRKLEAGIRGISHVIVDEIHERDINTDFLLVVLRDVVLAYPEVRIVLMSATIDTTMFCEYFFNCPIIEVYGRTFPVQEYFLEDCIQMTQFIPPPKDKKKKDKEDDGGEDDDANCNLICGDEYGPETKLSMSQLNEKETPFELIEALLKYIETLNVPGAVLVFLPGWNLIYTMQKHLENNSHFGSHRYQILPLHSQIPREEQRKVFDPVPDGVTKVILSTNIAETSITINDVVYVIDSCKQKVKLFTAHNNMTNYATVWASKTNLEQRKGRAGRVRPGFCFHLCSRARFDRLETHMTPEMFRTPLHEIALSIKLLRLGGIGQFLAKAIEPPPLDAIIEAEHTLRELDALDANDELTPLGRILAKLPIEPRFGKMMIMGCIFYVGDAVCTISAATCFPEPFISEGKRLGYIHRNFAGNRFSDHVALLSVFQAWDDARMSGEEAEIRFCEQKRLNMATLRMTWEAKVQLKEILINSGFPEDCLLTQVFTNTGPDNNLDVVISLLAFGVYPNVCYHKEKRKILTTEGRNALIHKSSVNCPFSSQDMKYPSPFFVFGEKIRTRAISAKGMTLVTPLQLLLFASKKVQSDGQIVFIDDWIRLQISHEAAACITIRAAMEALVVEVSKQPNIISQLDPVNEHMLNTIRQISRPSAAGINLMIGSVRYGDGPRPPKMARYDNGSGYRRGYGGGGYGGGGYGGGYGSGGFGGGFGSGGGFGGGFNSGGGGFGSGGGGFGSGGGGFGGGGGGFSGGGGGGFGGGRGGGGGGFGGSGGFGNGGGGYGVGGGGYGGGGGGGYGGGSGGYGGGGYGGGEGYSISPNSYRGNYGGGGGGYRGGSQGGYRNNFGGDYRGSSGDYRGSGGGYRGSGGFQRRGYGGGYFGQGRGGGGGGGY
UniProt Q01320: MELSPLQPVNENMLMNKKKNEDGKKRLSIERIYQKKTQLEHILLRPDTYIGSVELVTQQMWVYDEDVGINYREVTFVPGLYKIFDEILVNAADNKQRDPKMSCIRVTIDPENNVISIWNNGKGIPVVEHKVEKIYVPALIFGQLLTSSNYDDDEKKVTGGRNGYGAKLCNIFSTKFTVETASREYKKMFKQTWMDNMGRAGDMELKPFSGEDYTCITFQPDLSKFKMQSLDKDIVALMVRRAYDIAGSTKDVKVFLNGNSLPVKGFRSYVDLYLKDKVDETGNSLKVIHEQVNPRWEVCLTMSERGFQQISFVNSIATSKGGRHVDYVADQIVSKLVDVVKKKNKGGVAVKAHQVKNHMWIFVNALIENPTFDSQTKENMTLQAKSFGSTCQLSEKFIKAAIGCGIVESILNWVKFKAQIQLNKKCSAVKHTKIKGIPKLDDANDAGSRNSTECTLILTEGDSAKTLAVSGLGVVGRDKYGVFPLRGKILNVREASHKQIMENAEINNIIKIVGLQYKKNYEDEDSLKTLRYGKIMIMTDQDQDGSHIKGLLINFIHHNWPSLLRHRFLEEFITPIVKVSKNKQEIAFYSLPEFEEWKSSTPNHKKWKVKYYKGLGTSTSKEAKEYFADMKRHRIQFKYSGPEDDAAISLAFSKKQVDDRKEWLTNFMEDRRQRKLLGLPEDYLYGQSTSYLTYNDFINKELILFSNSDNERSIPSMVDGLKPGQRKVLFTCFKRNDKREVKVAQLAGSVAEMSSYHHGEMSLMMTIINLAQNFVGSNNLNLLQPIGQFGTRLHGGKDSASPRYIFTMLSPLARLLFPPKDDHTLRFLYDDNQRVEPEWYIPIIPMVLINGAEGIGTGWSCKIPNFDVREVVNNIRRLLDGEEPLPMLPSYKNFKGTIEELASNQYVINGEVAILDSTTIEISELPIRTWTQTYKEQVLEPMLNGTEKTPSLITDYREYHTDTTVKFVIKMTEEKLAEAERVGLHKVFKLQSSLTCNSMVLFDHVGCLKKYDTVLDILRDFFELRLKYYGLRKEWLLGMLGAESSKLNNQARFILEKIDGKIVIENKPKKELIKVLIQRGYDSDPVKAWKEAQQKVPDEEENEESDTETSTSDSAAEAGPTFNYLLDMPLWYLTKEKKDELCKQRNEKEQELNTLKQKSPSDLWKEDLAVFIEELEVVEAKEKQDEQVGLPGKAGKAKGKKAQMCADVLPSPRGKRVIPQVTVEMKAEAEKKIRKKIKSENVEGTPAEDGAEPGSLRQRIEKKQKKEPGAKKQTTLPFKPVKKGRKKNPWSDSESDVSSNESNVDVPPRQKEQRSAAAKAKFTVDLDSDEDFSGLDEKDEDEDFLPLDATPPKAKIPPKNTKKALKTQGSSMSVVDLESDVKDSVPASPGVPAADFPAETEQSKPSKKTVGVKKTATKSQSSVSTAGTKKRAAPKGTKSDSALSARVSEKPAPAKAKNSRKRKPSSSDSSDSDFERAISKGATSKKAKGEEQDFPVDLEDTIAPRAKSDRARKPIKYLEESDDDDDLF
UniProt P13864: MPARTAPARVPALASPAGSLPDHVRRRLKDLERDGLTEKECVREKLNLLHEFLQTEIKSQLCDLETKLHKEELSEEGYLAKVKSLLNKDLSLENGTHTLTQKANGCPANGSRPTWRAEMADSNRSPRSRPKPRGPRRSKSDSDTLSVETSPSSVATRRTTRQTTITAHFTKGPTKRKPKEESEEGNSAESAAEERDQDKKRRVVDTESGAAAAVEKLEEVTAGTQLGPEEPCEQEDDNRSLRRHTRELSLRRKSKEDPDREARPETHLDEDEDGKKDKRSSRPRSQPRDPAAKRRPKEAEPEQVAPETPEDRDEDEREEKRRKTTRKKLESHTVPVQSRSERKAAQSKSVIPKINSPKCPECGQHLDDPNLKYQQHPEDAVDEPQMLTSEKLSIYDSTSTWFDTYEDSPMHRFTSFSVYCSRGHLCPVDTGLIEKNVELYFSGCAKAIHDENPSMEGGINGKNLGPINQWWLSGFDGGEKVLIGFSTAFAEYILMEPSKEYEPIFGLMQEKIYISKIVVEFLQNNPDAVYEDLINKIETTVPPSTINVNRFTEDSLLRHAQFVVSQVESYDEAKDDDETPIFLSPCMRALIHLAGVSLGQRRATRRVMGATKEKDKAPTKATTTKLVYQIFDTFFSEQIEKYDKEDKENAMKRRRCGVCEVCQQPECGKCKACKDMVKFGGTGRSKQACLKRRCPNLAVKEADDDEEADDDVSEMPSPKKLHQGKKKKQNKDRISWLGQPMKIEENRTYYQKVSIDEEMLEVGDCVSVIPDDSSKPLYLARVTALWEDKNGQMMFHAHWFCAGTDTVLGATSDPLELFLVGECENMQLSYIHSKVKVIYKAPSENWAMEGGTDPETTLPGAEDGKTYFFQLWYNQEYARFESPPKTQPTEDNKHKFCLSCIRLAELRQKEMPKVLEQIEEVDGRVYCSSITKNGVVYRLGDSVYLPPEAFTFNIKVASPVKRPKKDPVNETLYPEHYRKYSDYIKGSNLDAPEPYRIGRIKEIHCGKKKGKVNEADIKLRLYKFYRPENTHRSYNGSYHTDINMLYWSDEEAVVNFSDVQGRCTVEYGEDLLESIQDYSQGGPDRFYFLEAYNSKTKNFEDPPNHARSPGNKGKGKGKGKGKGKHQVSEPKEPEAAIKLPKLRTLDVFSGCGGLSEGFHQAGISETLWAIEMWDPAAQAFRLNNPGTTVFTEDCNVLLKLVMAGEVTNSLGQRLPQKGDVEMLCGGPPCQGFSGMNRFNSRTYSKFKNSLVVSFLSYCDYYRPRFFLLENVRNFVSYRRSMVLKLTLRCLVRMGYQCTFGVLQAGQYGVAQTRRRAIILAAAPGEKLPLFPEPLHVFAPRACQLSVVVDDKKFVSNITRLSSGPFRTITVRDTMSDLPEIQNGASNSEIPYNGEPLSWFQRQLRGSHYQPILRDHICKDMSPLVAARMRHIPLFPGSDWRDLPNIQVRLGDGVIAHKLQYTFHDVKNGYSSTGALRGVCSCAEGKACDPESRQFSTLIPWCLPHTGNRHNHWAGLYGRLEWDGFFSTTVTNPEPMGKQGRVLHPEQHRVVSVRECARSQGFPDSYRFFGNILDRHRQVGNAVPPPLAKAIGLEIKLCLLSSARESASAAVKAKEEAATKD

| Molecule | binding |
| --- | --- |
| PARP1 (from UniProt P11103 1-1013) | binds |
| SNF2H (SMARCA5) (from UniProt Q91ZW3 1-1051) | binds |
| structural maintenance of chromosomes protein 3 (SMC3) (from UniProt Q9CW03 1-1217) | binds |
| CTCF (protein, UniProt Q61164 1-736) MEGEAVEAIVEESETFIKGKERKTYQRRREGGQEEDACHLPQNQTDGGEVVQDVNSSVQMVMMEQLDPTLLQMKTEVMEGTVAPEAEAAVDDTQIITLQVVNMEEQPINIGELQLVQVPVPVTVPVATTSVEELQGAYENEVSKEGLAESEPMICHTLPLPEGFQVVKVGANGEVETLEQGELPPQEDSSWQKDPDYQPPAKKTKKTKKSKLRYTEEGKDVDVSVYDFEEEQQEGLLSEVNAEKVVGNMKPPKPTKIKKKGVKKTFQCELCSYTCPRRSNLDRHMKSHTDERPHKCHLCGRAFRTVTLLRNHLNTHTGTRPHKCPDCDMAFVTSGELVRHRRYKHTHEKPFKCSMCDYASVEVSKLKRHIRSHTGERPFQCSLCSYASRDTYKLKRHMRTHSGEKPYECYICHARFTQSGTMKMHILQKHTENVAKFHCPHCDTVIARKSDLGVHLRKQHSYIEQGKKCRYCDAVFHERYALIQHQKSHKNEKRFKCDQCDYACRQERHMIMHKRTHTGEKPYACSHCDKTFRQKQLLDMHFKRYHDPNFVPAAFVCSKCGKTFTRRNTMARHADNCAGPDGVEGENGGETKKSKRGRKRKMRSKKEDSSDSEENAEPDLDDNEEEEEPAVEIEPEPEPQPQPPPPPQPVAPAPPPAKKRRGRPPGRTNQPKQNQPTAIIQVEDQNTGAIENIIVEVKKEPDAEPAEGEEEEAQAATTDAPNGDLTPEMILSMMDR | no binding |

Now from value to molecule:

| binding | Molecule |
| --- | --- |
| binds | DHX9 (from UniProt O70133 1-1380) |
| binds | DNA topoisomerase 2A (TOP2A) (from UniProt Q01320 1-1528) |
| binds | DNMT1 (from UniProt P13864 1-1620) |
| binds | SMC1a (protein, UniProt Q9CU62 1-1233) MGFLKLIEIENFKSYKGRQIIGPFQRFTAIIGPNGSGKSNLMDAISFVLGEKTSNLRVKTLRDLIHGAPVGKPAANRAFVSMVYSEEGAEDRTFARVIVGGSSEYKINNKVVQLHEYSEELEKLGILIKARNFLVFQGAVESIAMKNPKERTALFEEISRSGELAQEYDKRKKEMVKAEEDTQFNYHRKKNIAAERKEAKQEKEEADRYQRLKDEVVRAQVQLQLFKLYHNEVEIEKLNKELASKNKEIEKDKKRMDKVEDELKEKKKELGKMMREQQQIEKEIKEKDSELNQKRPQYIKAKENTSHKIKKLEAAKKSLQNAQKHYKKRKGDMDELEKEMLSVEKARQEFEERMEEESQSQGRDLTLEENQVKKYHRLKEEASKRAATLAQELEKFNRDQKADQDRLDLEERKKVETEAKIKQKLREIEENQKRIEKLEEYITTSKQSLEEQKKLEGELTEEVEMAKRRIDEINKELNQVMEQLGDARIDRQESSRQQRKAEIMESIKRLYPGSVYGRLIDLCQPTQKKYQIAVTKVLGKNMDAIIVDSEKTGRDCIQYIKEQRGEPETFLPLDYLEVKPTDEKLRELKGAKLVIDVIRYEPPHIKKALQYACGNALVCDNVEDARRIAFGGHQRHKTVALDGTLFQKSGVISGGASDLKAKARRWDEKAVDKLKEKKERLTEELKEQMKAKRKEAELRQVQSQAHGLQMRLKYSQSDLEQTKTRHLALNLQEKSKLESELANFGPRINDIKRIIQSREREMKDLKEKMNQVEDEVFEEFCREIGVRNIREFEEEKVKRQNEIAKKRLEFENQKTRLGIQLDFEKNQLKEDQDKVHMWEQTVKKDENEIEKLKKEEQRHMKIIDETMAQLQDLKNQHLAKKSEVNDKNHEMEEIRKKLGGANKEMTHLQKEVTAIETKLEQKRSDRHNLLQACKMQDIKLPLSKGTMDDISQEEGSSQGEESVSGSQRTSSIYAREALIEIDYGDLCEDLKDAQAEEEIKQEMNTLQQKLNEQQSVLQRIAAPNMKAMEKLESVRDKFQETSDEFEAARKRAKKAKQAFEQIKKERFDRFNACFESVATNIDEIYKALSRNSSAQAFLGPENPEEPYLDGINYNCVAPGKRFRPMDNLSGGEKTVAALALLFAIHSYKPAPFFVLDEIDAALDNTNIGKVANYIKEQSTCNFQAIVISLKEEFYTKAESLIGVYPEQGDCVISKVLTFDLTKYPDANPNPNEQ |
